Data: the supplement of paper PMC9877034
Structures can show the parent of a compound that is named as a salt. In all, about 1,000 compounds were measured (“cFRET/donor change relative to DMSO, normalised to beta-lapachone positive control (supercomplex I-IV assembly)”: median about 0.18, lowest 2% from about -1 on). This is one part of the list.

The compounds below were run on C2C12 (NDUFB8-AcGFP / COX8A-DsRed-Monomer FRET reporter) (assay: cFRET/donor change relative to DMSO, normalised to beta-lapachone positive control (supercomplex I-IV assembly) (fraction of beta-lapachone effect); higher = more respiratory supercomplex assembly). Details: 40 µM; 24 h.
Protocol: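 Cells were treated with 40 uM compound for 24 h and imaged on an IN Cell Analyzer 6000. Corrected FRET was divided by donor signal (cFRET/donor) and measured in two replicate experiments. The score is (mean cFRET/donor of compound - mean DMSO) / (mean beta-lapachone 40 uM - mean DMSO). Compounds flagged for prominent cell death, abnormal morphology or decreased cell number were excluded.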
`CC(C)[N+](C)(CCOC(=O)C1c2ccccc2Oc2ccccc21)C(C)C` [Propantheline bromide] showed a cFRET/donor change of 0.495.
Compound `O=C(O)Cc1c[nH]c2ccc(O)cc12` [5-Hydroxyindolacetic acid] has a cFRET/donor change of -0.112.
With `CCN(c1nc(N)c(C(=O)NC(=N)N)nc1Cl)C(C)C` [5-(N-Ethyl-N-isopropyl)amiloride] the cFRET/donor change was -1.88.
`Cn1cnc2c1c(=O)[nH]c(=O)n2C` [Theobromine] showed a cFRET/donor change of 0.196.
`CN(C)C/C=C(/c1ccc(Br)cc1)c1cccnc1` [Zimelidine dihydrochloride] was tested, and the cFRET/donor change was 0.443.
For `NCCCNCCCCNCCCN` [Spermine tetrahydrochloride], the cFRET/donor change was 0.457.
For `CCN(CC)CCNC(=O)c1cc(Cl)c(N)cc1OC` [Metoclopramide hydrochloride], the cFRET/donor change was 0.00585.
Work on `CC(=O)N[C@@H](Cc1c[nH]c2ccccc12)C(=O)OCc1cc(C(F)(F)F)cc(C(F)(F)F)c1` yielded a cFRET/donor change of 0.476.
`NC/C=C/C(=O)O` [(E)-4-amino-2-butenoic acid] was tested, and the cFRET/donor change was 0.284.
For `CCN(CC)CCOC(=O)c1cc(Cl)c(N)cc1OC` [SDZ-205,557 hydrochloride], the cFRET/donor change was 0.162.
In the case of `Oc1ccc(/C=C/c2cc(O)cc(O)c2)cc1` [Resveratrol], the cFRET/donor change is reported as 0.391.
`COc1ccc(/C=C/C(=O)Nc2ccccc2C(=O)O)cc1OC` [Tranilast] was tested, and the cFRET/donor change was -0.184.
With `CCCc1c(-c2ccc(O)cc2)nn(-c2ccc(O)cc2)c1-c1ccc(O)cc1` [1,3,5-tris(4-hydroxyphenyl)-4-propyl-1H-pyrazole] the cFRET/donor change was 0.157.
`NC[C@@H]1O[C@H](O[C@H]2[C@@H](O)[C@H](O[C@@H]3[C@@H](O)[C@H](N)C[C@H](N)[C@H]3O[C@H]3O[C@H](CO)[C@@H](O)[C@H](O)[C@H]3N)O[C@@H]2CO)[C@H](N)[C@@H](O)[C@@H]1O` [Paromomycin sulfate] gave a cFRET/donor change of 0.13.
Compound `CC[C@]1(O)C[C@H]2CN(CCc3c([nH]c4ccccc34)[C@@](C(=O)OC)(c3cc4c(cc3OC)N(C=O)[C@H]3[C@@](O)(C(=O)OC)[C@H](OC(C)=O)[C@]5(CC)C=CCN6CC[C@]43[C@@H]65)C2)C1` [Vincristine sulfate] has a cFRET/donor change of 0.0308.
`Cc1cccc(C)c1OCC(C)N` (stereo unspecified) [Mexiletene hydrochloride] was tested, and the cFRET/donor change was 0.157.
Compound `COc1ccccc1N1CCN(CCCCN2C(=O)c3ccccc3C2=O)CC1` [NAN-190 hydrobromide] has a cFRET/donor change of -0.033.
In the case of `NC(=O)c1cn(Cc2c(F)cccc2F)nn1` [Rufinamide], the cFRET/donor change is reported as 0.067.
In the case of `NC(N)=NC(N)=Nc1cccc(Cl)c1` [1-(m-Chlorophenyl)-biguanide hydrochloride], the cFRET/donor change is reported as 0.571.
With `Cc1cccc(C)c1NC(=O)C(C)N` (stereo unspecified) [Tocainide hydrochloride] the cFRET/donor change was 0.415.
Work on `C=CCc1cccc(/C=N/NC(=O)CN2CCN(Cc3ccccc3)CC2)c1O` yielded a cFRET/donor change of 0.577.
In the case of `CC[N+](CC)(CC)CCOc1ccc(/C=C/c2ccccc2)cc1`, the cFRET/donor change is reported as 0.391.
Work on `CC(C)C[C@H](NC(=O)[C@H](O)[C@H](N)Cc1ccccc1)C(=O)O` [Epibestatin hydrochloride] yielded a cFRET/donor change of 0.188.
In the case of `CCCCCCCCCCCCCCCC(=O)OC(CC(=O)O)C[N+](C)(C)C` (racemic) [Palmitoyl-DL-Carnitine chloride], the cFRET/donor change is reported as 0.347.
For `COc1ccc2c(c1OC)C(=O)O[C@@H]2[C@H]1c2c(cc3c(c2OC)OCO3)CCN1C` [Noscapine hydrchloride], the cFRET/donor change was 0.531.
For `O=C(C1CCCCC1)N1CC(=O)N2CCc3ccccc3C2C1` (stereo unspecified) [Praziquantel], the cFRET/donor change was 0.342.
With `C(=C\c1ccccc1)/CN1CCN(C(c2ccccc2)c2ccccc2)CC1` [Cinnarizine] the cFRET/donor change was 0.218.
Work on `COc1ccc2c(c1)c(CC(=O)O)c(C)n2C(=O)c1ccc(Cl)cc1` [Indomethacin] yielded a cFRET/donor change of 0.495.
With `O=C(O)c1cc(=O)cc(C(=O)O)[nH]1` [Chelidamic acid] the cFRET/donor change was 0.556.
In the case of `Cc1nc(C#Cc2cccnc2)cs1` [MTEP hydrochloride], the cFRET/donor change is reported as 0.691.
With `Nc1ccn([C@H]2CC[C@@H](CO)O2)c(=O)n1` [2',3'-dideoxycytidine] the cFRET/donor change was 0.352.
For `O=C(Nc1ccccc1C(=O)NC1CCCCNC1=O)c1cc2ccccc2s1` (stereo unspecified), the cFRET/donor change was 0.384.
For `CN(C)CCOC(C)(c1ccccc1)c1ccccn1` (stereo unspecified) [Doxylamine succinate], the cFRET/donor change was 0.558.
`COc1cccc(-c2cc(=O)c3ccccc3o2)c1N` showed a cFRET/donor change of 0.0735.
`CCCCCCCCCCCCCCC[C@H](O)[C@H](N)CO` (racemic) [DL-erythro-Dihydrosphingosine] was tested, and the cFRET/donor change was 0.48.
`O=C(CCc1ccc(O)cc1)c1c(O)cc(O)cc1O` [Phloretin] showed a cFRET/donor change of 0.232.
Work on `CCCCCCCCCCCCCCCCCCN(CCCCCCCCCCCCCCCCCC)CCCN(CCO)CCO` [Avridine] yielded a cFRET/donor change of 0.401.
Work on `CN1CCN(CCCN2c3ccccc3Sc3ccc(C(F)(F)F)cc32)CC1` [Trifluoperazine dihydrochloride] yielded a cFRET/donor change of 0.794.
`C[N+](C)(C)CC(=O)O` [Betaine hydrochloride] showed a cFRET/donor change of -0.0834.
`OCCN(CCO)c1nc(N2CCCCC2)c2nc(N(CCO)CCO)nc(N3CCCCC3)c2n1` [Dipyridamole] was tested, and the cFRET/donor change was -0.8.
`CC[C@H](CO)Nc1nc(NCc2ccccc2)c2ncn(C(C)C)c2n1` [Roscovitine] was tested, and the cFRET/donor change was -0.0126.
In the case of `Nc1cc(Cl)c(NC2=NCCN2)c(Cl)c1` [p-Aminoclonidine hydrochloride], the cFRET/donor change is reported as -0.0499.
Compound `Nc1nc(Cl)nc2c1ncn2[C@@H]1O[C@H](CO)[C@@H](O)[C@H]1O` [2-Chloroadenosine] has a cFRET/donor change of 0.284.
With `NO` [Hydroxylamine hydrochloride] the cFRET/donor change was -0.0386.
Work on `CS(=O)(=O)c1ccc(-n2nc(C(F)(F)F)cc2-c2ccc(F)cc2)cc1` yielded a cFRET/donor change of 0.187.
`Cc1ccc(=O)n(-c2ccccc2)c1` [Pirfenidone] gave a cFRET/donor change of 0.0731.
`CC(=O)/C=C1/C(=O)N(C)c2ccccc21` [Supercinnamaldehyde] showed a cFRET/donor change of 0.0218.
In the case of `CN(C)C(=O)[C@H](O)[C@H](Cc1ccccc1)NC(=O)c1cc2cc(Cl)ccc2[nH]1`, the cFRET/donor change is reported as 0.332.
With `N#Cc1cc2nc(O)c(O)nc2cc1[N+](=O)[O-]` [CNQX disodium] the cFRET/donor change was 0.332.
In the case of `N[C@@H](CS(=O)O)C(=O)O` [L-Cysteinesulfinic Acid], the cFRET/donor change is reported as 0.229.
In the case of `O=C(Nc1ccncc1)c1cc([N+](=O)[O-])ccc1Cl`, the cFRET/donor change is reported as 0.286.
